Measured values from US7902185B2, “Treatment of neurodegenerative diseases using proteasome modulators” (ALS Therapy Development Foundation, Inc., priority 2002, dated 2011).

How the values were obtained:
[1] = test system: SOD1 G93A mouse model of ALS; assay: Neurological score in SOD1 G93A mouse model of ALS; type: in vivo; conditions: Combined Riluzole studies (100% Litter matched)
Method: Neurological Scoring: From day 85 onward, neurological score was recorded on a 4-point scale: • 0=Normal reflex on the hind limbs (animal will splay its hind limbs when lifted by its tail) • 1=Abnormal reflex (Lack of splaying of hind limbs when animal is lifted by the tail). • 2=Abnormal reflex and visible evidence of paralysis • 3=Lack of reflex and total paralysis of hind limbs. • 4=Inability to right themselves when placed on the sides in 30 seconds or found dead. The animals are sacrificed at this stage if alive.

[2] = test system: SOD1 G93A mouse model of ALS; assay: Survival in SOD1 G93A mouse model of ALS; conditions: for Female (% effect on survival) / Female (Days) survival: females; for Female (% effect on survival) / Combined (% effect on survival) / Male (% effect on survival): vs control; for Combined (% effect on survival) / Combined (Days) survival: males+females; for Male (% effect on survival) / Male (Days) survival: males; for Combined (Days) survival / Female (Days) survival / Male (Days) survival: mean; for Female (Days) survival / Male (Days) survival: treated;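 on all read-outs here: heterozygous transgenic SOD1 G93A mice dosed from 60 days of age until death, checked daily for death, compared with vehicle-treated controls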
[3] = Combined Riluzole studies (100% Litter matched)
[4] = study Riluzole-1, 20 mg/Kg/day in drinking water
[5] = study Riluzole-2, 20 mg/Kg/day in drinking water

In the case of `Nc1nc2ccc(OC(F)(F)F)cc2s1` [Riluzole], the “Neurological score significance (Males & Females combined)” value [1] is reported as “no significant effect”, the “Female (% effect on survival)” value [2, 3] is reported as 3% and the “Combined (% effect on survival)” value [2, 3] is reported as 2%. The “Male (% effect on survival)” value [2, 3] was 1%, the “Combined (Days) survival” value ([2]; Combined Riluzole studies (100% Litter matched), treated N=33) was 135 days and the “Female (Days) survival” value [2, 3] was 137 days. For the same molecule, the “Male (Days) survival” value [2, 3] was 133 days, the “Female (% effect on survival)” value ([2]; study Riluzole-1) was 6% and the “Combined (% effect on survival)” value ([2]; study Riluzole-1) was 2%. For the same molecule, the “Male (% effect on survival)” value ([2]; study Riluzole-1) was −1.5%, the “Combined (Days) survival” value ([2]; study Riluzole-1, treated N=20, 20 mg/Kg/day in drinking water) was 134 days and the “Female (Days) survival” value [2, 4] was 138 days. The “Male (Days) survival” value [2, 4] was 131 days, the “Female (% effect on survival)” value ([2]; study Riluzole-2) was “None” and the “Combined (% effect on survival)” value ([2]; study Riluzole-2) was 2%. The “Combined (Days) survival” value ([2]; study Riluzole-2, treated N=15, 20 mg/Kg/day in drinking water) was 136 days, the “Female (Days) survival” value [2, 5] was 136 days and the “Male (Days) survival” value [2, 5] was 136 days.
